The target in the assay is T1, TwinkleFLAG (mtDNA helicase Twinkle with a FLAG tag at its C-terminus) (UniProt Q96RR1).
T1 sequence: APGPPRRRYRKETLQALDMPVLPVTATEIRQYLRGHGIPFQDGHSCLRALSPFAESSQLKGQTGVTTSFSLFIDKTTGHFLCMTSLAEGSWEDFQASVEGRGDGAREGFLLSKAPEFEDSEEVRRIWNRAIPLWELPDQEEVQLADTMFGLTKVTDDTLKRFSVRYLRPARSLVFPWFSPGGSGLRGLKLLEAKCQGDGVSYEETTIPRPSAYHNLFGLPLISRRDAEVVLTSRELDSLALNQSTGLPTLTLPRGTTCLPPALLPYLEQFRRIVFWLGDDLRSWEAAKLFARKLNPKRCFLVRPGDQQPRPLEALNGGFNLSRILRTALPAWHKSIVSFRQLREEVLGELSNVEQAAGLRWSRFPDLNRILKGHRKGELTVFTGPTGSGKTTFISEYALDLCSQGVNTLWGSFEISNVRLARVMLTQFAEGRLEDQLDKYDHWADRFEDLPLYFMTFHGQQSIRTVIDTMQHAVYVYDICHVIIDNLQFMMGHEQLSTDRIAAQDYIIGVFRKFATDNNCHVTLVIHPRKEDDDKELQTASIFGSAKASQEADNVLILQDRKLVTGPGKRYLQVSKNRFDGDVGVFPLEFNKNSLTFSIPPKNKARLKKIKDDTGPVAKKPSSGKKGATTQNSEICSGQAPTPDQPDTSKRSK
Put plainly: cross-linking + affinity purification with mass spectrometry; whole cell 1% formaldehyde cross-linking; method B (X-ChIP): RIPA lysis, sonication, RNAse A, DNAse I and Benzonase for 30 min at 37°C, FLAG resin, RIPA washes, 3xFLAG peptide elution; Q Exactive; enriched ≥2 fold by LFQ over TwinkleFLAG -XL and mtLucFLAG +XL; mtDNA-containing cells, levels also compared with ρ° cells.

These are yes or no findings as the source states them, for the method shown. Binding seen in cells or lysates may run through a third protein. A yes stands for co-enrichment or nearness to the bait. Other partners may have been found. Tags and fused reporters may be left off the sequences shown.

B1: DDX28 (protein, UniProt Q9NUL7 1-540)
chain: MALTRPVRLFSLVTRLLLAPRRGLTVRSPDEPLPVVRIPVALQRQLEQRQSRRRNLPRPVLVRPGPLLVSARRPELNQPARLTLGRWERAPLASQGWKSRRARRDHFSIERAQQEAPAVRKLSSKGSFADLGLEPRVLHALQEAAPEVVQPTTVQSSTIPSLLRGRHVVCAAETGSGKTLSYLLPLLQRLLGQPSLDSLPIPAPRGLVLVPSRELAQQVRAVAQPLGRSLGLLVRDLEGGHGMRRIRLQLSRQPSADVLVATPGALWKALKSRLISLEQLSFLVLDEADTLLDESFLELVDYILEKSHIAEGPADLEDPFNPKAQLVLVGATFPEGVGQLLNKVASPDAVTTITSSKLHCIMPHVKQTFLRLKGADKVAELVHILKHRDRAERTGPSGTVLVFCNSSSTVNWLGYILDDHKIQHLRLQGQMPALMRVGIFQSFQKSSRDILLCTDIASRGLDSTGVELVVNYDFPPTLQDYIHRAGRVGRVGSEVPGTVISFVTHPWDVSLVQKIELAARRRRSLPGLASSVKEPLPQAT
B1: the binding entry is on record as “binds”.

B2: MTIF2 (protein, UniProt P46199 30-727)
chain: LRQWRHGFSSAYPVWTAQLCAWPWPTDVLTGAALSQYRLLVTKKEEGPWKSQLSSTKSKKVVEVWIGMTIEELARAMEKNTDYVYEALLNTDIDIDSLEADSHLDEVWIKEVITKAGMKLKWSKLKQDKVRKNKDAVRRPQADPALLTPRSPVVTIMGHVDHGKTTLLDKFRKTQVAAVETGGITQHIGAFLVSLPSGEKITFLDTPGHAAFSAMRARGAQVTDIVVLVVAADDGVMKQTVESIQHAKDAQVPIILAVNKCDKAEADPEKVKKELLAYDVVCEDYGGDVQAVPVSALTGDNLMALAEATVALAEMLELKADPNGPVEGTVIESFTDKGRGLVTTAIIQRGTLRKGSVLVAGKCWAKVRLMFDENGKTIDEAYPSMPVGITGWRDLPSAGEEILEVESEPRAREVVDWRKYEQEQEKGQEDLKIIEEKRKEHKEAHQKAREKYGHLLWKKRSILRFLERKEQIPLKPKEKRERDSNVLSVIIKGDVDGSVEAILNIIDTYDASHECELELVHFGVGDVSANDVNLAETFDGVIYGFNVNAGNVIQQSAAKKGVKIKLHKIIYRLVEDLQEELSSRLPCAVEEHPVGEASILATFSVTEGKKKVPVAGCRVQKGQLEKQKKFKLTRNGHVIWKGSLTSLKHHKDDISIVKTGMDCGLSLDEDNMEFQVGDRIVCYEEKQIQAKTSWDPGF
Turning to B2, the binding entry is on record as “binds”.

B3: DHX30 (protein, UniProt Q7L2E3 1-1194)
chain: MFSLDSFRKDRAQHRQRQCKLPPPRLPPMCVNPTPGGTISRASRDLLKEFPQPKNLLNSVIGRALGISHAKDKLVYVHTNGPKKKKVTLHIKWPKSVEVEGYGSKKIDAERQAAAAACQLFKGWGLLGPRNELFDAAKYRVLADRFGSPADSWWRPEPTMPPTSWRQLNPESIRPGGPGGLSRSLGREEEEDEEEELEEGTIDVTDFLSMTQQDSHAPLRDSRGSSFEMTDDDSAIRALTQFPLPKNLLAKVIQIATSSSTAKNLMQFHTVGTKTKLSTLTLLWPCPMTFVAKGRRKAEAENKAAALACKKLKSLGLVDRNNEPLTHAMYNLASLRELGETQRRPCTIQVPEPILRKIETFLNHYPVESSWIAPELRLQSDDILPLGKDSGPLSDPITGKPYVPLLEAEEVRLSQSLLELWRRRGPVWQEAPQLPVDPHRDTILNAIEQHPVVVISGDTGCGKTTRIPQLLLERYVTEGRGARCNVIITQPRRISAVSVAQRVSHELGPSLRRNVGFQVRLESKPPSRGGALLFCTVGILLRKLQSNPSLEGVSHVIVDEVHERDVNTDFLLILLKGLQRLNPALRLVLMSATGDNERFSRYFGGCPVIKVPGFMYPVKEHYLEDILAKLGKHQYLHRHRHHESEDECALDLDLVTDLVLHIDARGEPGGILCFLPGWQEIKGVQQRLQEALGMHESKYLILPVHSNIPMMDQKAIFQQPPVGVRKIVLATNIAETSITINDIVHVVDSGLHKEERYDLKTKVSCLETVWVSRANVIQRRGRAGRCQSGFAYHLFPRSRLEKMVPFQVPEILRTPLENLVLQAKIHMPEKTAVEFLSKAVDSPNIKAVDEAVILLQEIGVLDQREYLTTLGQRLAHISTDPRLAKAIVLAAIFRCLHPLLVVVSCLTRDPFSSSLQNRAEVDKVKALLSHDSGSDHLAFVRAVAGWEEVLRWQDRSSRENYLEENLLYAPSLRFIHGLIKQFSENIYEAFLVGKPSDCTLASAQCNEYSEEEELVKGVLMAGLYPNLIQVRQGKVTRQGKFKPNSVTYRTKSGNILLHKSTINREATRLRSRWLTYFMAVKSNGSVFVRDSSQVHPLAVLLLTDGDVHIRDDGRRATISLSDSDLLRLEGDSRTVRLLKELRRALGRMVERSLRSELAALPPSVQEEHGQLLALLAELLRGPCGSFDVRKTADD
Consider B3, for which the binding entry was “binds”.

B4: MTRF1 (protein, UniProt O75570 62-445)
chain: CHQDTKMLWKHKALQKYMENLSKEYQTLEQCLQHIPVNEENRRSLNRRHAELAPLAAIYQEIQETEQAIEELESMCKSLNKQDEKQLQELALEERQTIDQKINMLYNELFQSLVPKEKYDKNDVILEVTAGRTTGGDICQQFTREIFDMYQNYSCYKHWQFELLNYTPADYGGLHHAAARISGDGVYKHLKYEGGIHRVQRIPEVGLSSRMQRIHTGTMSVIVLPQPDEVDVKLDPKDLRIDTFRAKGAGGQHVNKTDSAVRLVHIPTGLVVECQQERSQIKNKEIAFRVLRARLYQQIIEKDKRQQQSARKLQVGTRAQSERIRTYNFTQDRVSDHRIAYEVRDIKEFLCGGKGLDQLIQRLLQSADEEAIAELLDEHLKSAK
On to B4, for which the binding entry is listed as “binds”.

B5: LONP1 (enzyme, UniProt P36776 68-959)
chain: FWEASSRGGGAFSGGEDASEGGAEEGAGGAGGSAGAGEGPVITALTPMTIPDVFPHLPLIAITRNPVFPRFIKIIEVKNKKLVELLRRKVRLAQPYVGVFLKRDDSNESDVVESLDEIYHTGTFAQIHEMQDLGDKLRMIVMGHRRVHISRQLEVEPEEPEAENKHKPRRKSKRGKKEAEDELSARHPAELAMEPTPELPAEVLMVEVENVVHEDFQVTEEVKALTAEIVKTIRDIIALNPLYRESVLQMMQAGQRVVDNPIYLSDMGAALTGAESHELQDVLEETNIPKRLYKALSLLKKEFELSKLQQRLGREVEEKIKQTHRKYLLQEQLKIIKKELGLEKDDKDAIEEKFRERLKELVVPKHVMDVVDEELSKLGLLDNHSSEFNVTRNYLDWLTSIPWGKYSNENLDLARAQAVLEEDHYGMEDVKKRILEFIAVSQLRGSTQGKILCFYGPPGVGKTSIARSIARALNREYFRFSVGGMTDVAEIKGHRRTYVGAMPGKIIQCLKKTKTENPLILIDEVDKIGRGYQGDPSSALLELLDPEQNANFLDHYLDVPVDLSKVLFICTANVTDTIPEPLRDRMEMINVSGYVAQEKLAIAERYLVPQARALCGLDESKAKLSSDVLTLLIKQYCRESGVRNLQKQVEKVLRKSAYKIVSGEAESVEVTPENLQDFVGKPVFTVERMYDVTPPGVVMGLAWTAMGGSTLFVETSLRRPQDKDAKGDKDGSLEVTGQLGEVMKESARIAYTFARAFLMQHAPANDYLVTSHIHLHVPEGATPKDGPSAGCTIVTALLSLAMGRPVRQNLAMTGEVSLTGKILPVGGIKEKTIAAKRAGVTCIVLPAENKKDFYDLAAFITEGLEVHFVEHYREIFDIAFPDEQAEALAVER
As to B5, the binding result is reported as “binds”.

B6: GRSF1 (protein, UniProt Q12849 118-480)
chain: SQESKTTYLEDLPPPPEYELAPSKLEEEVDDVFLIRAQGLPWSCTMEDVLNFFSDCRIRNGENGIHFLLNRDGKRRGDALIEMESEQDVQKALEKHRMYMGQRYVEVYEINNEDVDALMKSLQVKSSPVVNDGVVRLRGLPYSCNEKDIVDFFAGLNIVDITFVMDYRGRRKTGEAYVQFEEPEMANQALLKHREEIGNRYIEIFPSRRNEVRTHVGSYKGKKIASFPTAKYITEPEMVFEEHEVNEDIQPMTAFESEKEIELPKEVPEKLPEAADFGTTSSLHFVHMRGLPFQANAQDIINFFAPLKPVRITMEYSSSGKATGEADVHFETHEDAVAAMLKDRSHVHHRYIELFLNSCPKGK
Consider B6, for which the binding entry is “binds”.
